Assay results: PubChem BioAssay AID651803 (National Center for Advancing Translational Sciences (NCATS), 2012)
The whole screen tested about 1,200 compounds, of which fewer than 10 were called active. The call rests on the fitted dose curve; in most records, active means well fitted curve in the direction sought with a large enough effect; inconclusive means small, poorly fitted or top-dose-only effect, or another doubt; inactive means no such curve, though single readings can be large or run the other way. This is one part of the list.

Amino acid sequences for entries named in this document (tags omitted). A change or cut given only in a name is not applied to a line headed by its entry.
UniProt P11308: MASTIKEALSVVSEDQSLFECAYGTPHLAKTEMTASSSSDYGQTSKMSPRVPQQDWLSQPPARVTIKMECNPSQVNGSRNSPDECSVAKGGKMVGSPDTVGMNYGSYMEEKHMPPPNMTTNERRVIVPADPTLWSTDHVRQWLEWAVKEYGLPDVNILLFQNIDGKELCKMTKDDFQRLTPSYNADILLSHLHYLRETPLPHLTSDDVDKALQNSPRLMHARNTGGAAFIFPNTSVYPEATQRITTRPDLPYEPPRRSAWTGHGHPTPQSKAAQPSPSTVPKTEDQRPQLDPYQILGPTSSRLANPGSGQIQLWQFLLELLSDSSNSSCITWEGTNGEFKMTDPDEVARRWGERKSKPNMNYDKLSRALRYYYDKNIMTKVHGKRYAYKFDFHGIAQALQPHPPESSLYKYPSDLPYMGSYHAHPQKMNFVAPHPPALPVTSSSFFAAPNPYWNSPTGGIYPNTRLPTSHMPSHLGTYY

Molecular target: Transcriptional regulator ERG (Homo sapiens) (UniProt P11308)
Assay: qHTS for Small Molecule Inhibitors of the ERG Ets/DNA interaction: TR assay against cherry picks; further: % of control where 0% means no effect
Conditions: ERG Ets domain-DNA fluorescence polarization, Texas red probe; at 154 µM (top of the series)
From the text: The Ets family of proteins is a family of ~30 conserved transcription factors defined by the presence of an ~85 amino acid domain referred to as the Ets domain, which mediates sequence-specific DNA binding to a core DNA element GGAA/T.The Ets family member ERG has been linked to several neoplasms. […] More extensive studies of the effects of over-expression of ERG in prostate cells have recently been carried out and have shown that over-expression of ERG results in increased invasion. […] We will carry out a high throughout screen to identify inhibitors of the interaction between ERG and DNA using a fluorescence polarization (FP) assay with a His-tagged ERG Ets domain and fluorescently-labeled DNA probes to develop small molecule inhibitors of this interaction as probes to test this hypothesis and lay the groundwork for the development of targeted therapies against ERG. This is the confirmation against the cherry picks in theprimary screening assay. NIH Molecular Libraries Probe Production Network [MLPCN] NIH Chemical Genomics Center [NCGC] Grant: NS066464 PI Name: John Bushweller, University of Virgina
1.5 ul of protein solution (1 uM ERG domain in 300mM KCl, 50mM Tris-HCl, 1mM EDTA, 1mM DTT, pH 7.5); 20 nl Control plate and compound library plate; 1.5 ul mixture of 5 nM Fluorescein-DNA and 100nM Texas-615-DNA solution in same buffer as above solution; measure fluorescence polarization sequentially for fluorescein (Excitation = 480 nm, Emission = 535s, 535p nm) and Texas red (Excitation = 555 nm, Emission = 632s, 632p nm).

Activity change, negative = inhibition, inactive:
O=C(Nc1ccc(NS(=O)(=O)c2ccc([N+](=O)[O-])cc2)cc1)c1ccco1 6.22%, CC(C)CCNC(=O)c1ccc2c(SCC(=O)O)c3c(nc2c1)CCCC3 -1.3%, Cn1c(CNC(=O)CNC(=O)c2ccc(C(C)(C)C)cc2)cc(=O)n(C)c1=O -3.56%, CCCC1OC23CCCCC2C(C#N)(C#N)C1(C#N)C(=N)O3 (configuration not stated) 1.67%, Cc1c(-c2ccccc2)oc2c(C(=O)N3CCN(c4ccc([N+](=O)[O-])cc4)CC3)cccc2c1=O 2.34%, Cc1ccc(S(=O)(=O)NC2(C(F)(F)F)C(=O)Nc3c2c(=O)[nH]c(=O)n3-c2ccccc2)cc1 (configuration not stated) -3.48%, COc1cc(/C=C2/S/C(=N/S(=O)(=O)c3ccccc3)NC2=O)c([N+](=O)[O-])cc1OC 4.79%, Cc1ccc(NC(=O)COC(=O)CCc2ccccc2)cc1S(=O)(=O)N1CCOCC1 -14.1%, C/C(=N\NC(=O)c1cc(-c2ccc(Cl)s2)[nH]n1)c1ccncc1 -0.876%, COc1ccc(-c2nc3ccccc3c(=O)[nH]2)cc1 1.78%, COc1ccc(CNC(=O)c2cccnc2SC)cc1OC -8.6%, CN(C)CCOc1cccc(Br)c1 5.57%, CC[C@]12c3[nH]c4ccccc4c3CCN1C(=O)C(CC(=O)NCc1cccc(C(F)(F)F)c1)C[C@@H]2C(=O)N1CCN(C(=O)C2CC2)CC1 (some centres not stated) 5.37%, Cc1onc(C(=O)NCc2ccccn2)c1[N+](=O)[O-] 5.66%, CCc1ccc2oc(C(=O)NCC(c3ccc(Cl)cc3)N3CCOCC3)c(C)c2c1 (configuration not stated) -17.9%, S=C(NCc1ccco1)N1CCN(c2ccccn2)CC1 7.18%, COc1ccc(CCNC(=O)Cn2cc(C(F)(F)F)cc(Cl)c2=O)cc1 2.42%, Cc1ccc(C)c(NC(=O)Cn2cnc3c(oc4ccccc43)c2=O)c1 2.46%, O=C(COC(=O)c1ccc(Cl)cc1[N+](=O)[O-])NCc1ccco1 -4.87%, CC1CC(C)CN(CCCSc2ccccc2)C1 (configuration not stated) 3.95%, Cc1nccc2oc(=O)c(NC(=O)c3ccc(Cl)cc3)cc12 -5.79%, O=C(N/N=C/c1c[nH]c2ccccc12)c1ccc(Br)cc1 -22.3%, Cc1ccccc1OCc1nc(-c2ccc(NC(=O)c3ccc4c(c3)OCO4)cc2)no1 10.3%, CCC(CC)COC(=O)C(C#N)c1nc2ccccc2nc1N1CCN(CC)CC1 (configuration not stated) -11.9%, CCOc1ccc(N/C(SCc2cccc([N+](=O)[O-])c2)=C(/C#N)C(N)=O)cc1 -6.84%, CCN(CC)c1ccc2cc(-c3nc(-c4ccc(OC)cc4)cs3)c(=O)oc2c1 9.04%, COc1ccccc1CN1CC(C(=O)NCc2ncccc2C)CCC1=O (configuration not stated) 2.94%, CCC(C)NC(=O)Cn1cc(S(=O)(=O)N2CCCC2)c(S(=O)(=O)N2CCCC2)c1 (configuration not stated) -8.3%, CCOC(=O)C1=C(CN2CCCCC2)NC(=O)NC1c1cc(C)ccc1C (configuration not stated) -3.01%, COc1ccc(/C=N/Nc2cc(N3CCOCC3)ncn2)c(OC)c1 -10.1%, O=C(NCc1cccnc1)c1ccccc1-c1nc(-c2ccccc2)no1 -5.74%, CCCCNc1c2c3c(cccc3n(C)c1=O)C(=O)c1ccccc1-2 91.7%, COc1cccc2c1cc1c(=O)n(CC(=O)N3CCCC3)nc(C)n12 2.27%, CN1/C(=C\C(=O)c2cccs2)C(C)(C)c2ccccc21 -5.89%, CC1CC(C)CN(S(=O)(=O)c2ccc(NC(=O)CN3C(=O)NC(C)(c4ccccc4)C3=O)cc2)C1 (configuration not stated) -2.77%, CCOC(=O)N1CCC(NC(=O)c2sc3nc4n(c(=O)c3c2C)CCCC4)CC1 -8.02%, COc1ccc(OC)c(NC(=O)c2ccc(CN3CCc4ccccc4C3)cc2)c1 2.4%, CC(C)C(NC(=O)CCNC(=O)c1ccc(C(C)(C)C)cc1)c1nc2ccccc2[nH]1 (configuration not stated) -4.86%, O=C1NCCCN1Cc1ccc(F)cc1Cl 3.22%, COc1ncnc2c1NC1=C(S2)C(=NCCC(=O)O)CC(C)(C)C1 99.7%, CCCC(C(=O)NC1CCCC1)N(C(=O)c1snc(C(N)=O)c1N)c1ccc(F)cc1 (configuration not stated) -20.5%, O=C(O)CN1C(=O)C(=O)N(Cc2ccc(C(F)(F)F)cc2)C1=O -3.42%, CCc1cccc(CC)c1-n1c(-c2cccnc2)n[nH]c1=S 4.55%, COc1ccc(C(=O)Nc2ccnn2C2CCN(Cc3cn(C)nc3C)CC2)cc1 2.22%, CCOc1ccc(/C=C2\SC(=S)N(C)C2=O)cc1OC -5.41%, Cc1ccc(S(=O)(=O)N(CC(=O)NCc2cccnc2)c2ccc(F)cc2)cc1 4.94%, CC(C)C1NC(=S)N(Cc2ccccc2)C1=O (configuration not stated) -0.239%, CCOc1ccc(NC(=O)Cc2c(C(=O)O)n(C)c3ccccc23)cc1 5.3%, Cc1cc(C)nc(N/N=C/c2ccco2)n1 2.57%, COc1cccc(CC2(CO)CCN(S(=O)(=O)N(C)C)CC2)c1 2.59%, CCOCCCNCC(=O)Nc1ccc(S(=O)(=O)NC(C)CC)cc1 (configuration not stated) -4.09%, Cc1cc2nc(-c3ccc[nH]c3=O)n(Cc3ccccc3F)c2cc1C -0.252%, COc1ccc(C(=O)NC(=S)NNC(=O)c2ccc(NC(=O)C(C)C)cc2)cc1 -15.3%, O=C(NC(=S)NNS(=O)(=O)c1ccc(Cl)cc1)c1cccnc1 5.41%, CCc1nc2ccccc2c(C(=O)NCc2ccccc2)c1C -5.65%, O=C(NCc1cccc(Cl)c1)c1ccncc1 -9.86%, Cc1ccc(C(C)NC(=O)c2cccnc2)cc1 (configuration not stated) 3.9%, COc1ccc(NC(=O)COC(=O)C2CCC2)cc1Cl 7.28%, CC(C)NS(=O)(=O)c1ccc(CCC(=O)NCc2ccncc2)cc1 -2.67%, COc1ccc(NC(=O)c2sc3nc(C)cc(C)c3c2N)cc1 5.59%, CCOc1cc(CNc2ccc(O)cc2)ccc1OCc1ccc(Cl)cc1 -3.57%, CCCc1c(OCCCCc2nn[nH]n2)ccc(C(C)=O)c1O 1.56%, Cn1c(Cl)cnc1C1CC(=O)c2cc(Cl)ccc2O1 (configuration not stated) -3.82%, Cc1ccc(C2=NN(CC(=O)NCCN(C)C)C(=O)CC2)cc1 -11.4%, O=S(=O)(NC1CCCCC1N1CCC(O)CC1)c1ccccc1 (configuration not stated) -0.536%, CN(C)c1ccc2c(c1)C(=NO)c1ccccc1-2 -19.4%, COc1cc(/C=N/NC(=O)c2ccncc2)ccc1OC(=O)c1ccc([N+](=O)[O-])cc1 -12.1%, O=[N+]([O-])c1ccc(S(=O)(=O)N/N=C/c2ccsc2)cc1 -10.2%, Nc1cc(-c2nn[nH]n2)ccc1F -15.4%, CC(C)(C)SC(=O)CC1NS(=O)(=O)OC2CCCCC12 (configuration not stated) 1.13%, CC(C)(C)OC(=O)N1CCC(CC2CC(c3cccc(Br)c3)=NO2)(C(=O)NCC2CCCCC2)CC1 (configuration not stated) 9.11%, COc1ccc(C(=S)N2CCN(c3ccccc3C)CC2)cc1OC -5.46%, OC(CNc1ncnc2sccc12)c1ccccc1 (configuration not stated) 4.07%, OCCN1CCN(CCCN2c3ccccc3Sc3ccc(Cl)cc32)CC1 -13.3%, COc1ccccc1N1CCN(C(=O)CSc2nc(C)c(Cc3ccccc3)c(=O)[nH]2)CC1 1.96%, CCOC(=O)COc1ccccc1/C=N/O -6.71%, CC(C)n1cnc2c(NCc3ccccc3)cc(N[C@H](C)CO)cc21 0.94%, CCOC(=O)c1ccc(-c2ccc(/C=C(\C#N)C(=O)Nc3cccc(C)c3)o2)cc1 30.3%, COc1ccc(Nc2ccnc(Nc3ccc(OC)cc3)n2)cc1 -19.5%, CC1(C)C2CCC1(C)C(NCC(O)COc1ccc(C#N)cc1)C2 (configuration not stated) 2.63%, CCOC(=O)NC(=S)Nc1ccc(C(C)(C)C)cc1Br -1.62%, COc1ccc(S(=O)(=O)N2CCc3ccccc32)cc1C(=O)N(CC(C)C)C1CCS(=O)(=O)C1 (configuration not stated) 0.304%, CCN(CC(=O)Nc1ccc(N2CCOCC2)cc1)CC(=O)NC(C)(C)C -0.837%, COCc1cc(C)nc(SCC(=O)Nc2ccc3c(c2)OCCO3)c1C#N -4.26%, CSCCC(NC(=O)/C(=C/c1ccc2c(c1)OCO2)NC(=O)c1cccc([N+](=O)[O-])c1)C(=O)O (configuration not stated) 1.28%, COc1ccc(-c2csc3ncnc(N4CCN(S(=O)(=O)c5ccccc5C#N)CC4)c23)cc1 2.84%, COc1ccc(NC2CCCN(C(=O)C3(C)CCCCC3)C2)cc1OC (configuration not stated) 1.15%, O=C(NCc1ccccc1)N1CCNCC1 1.58%, Cc1cc(NC(=O)COc2ccc(F)c(Cl)c2)no1 -11%, CC(=O)Nc1ccc(NC(=O)Nc2ccc(C)cc2C)cc1 1.3%, Cc1[nH]n(-c2ccccc2)c(=O)c1C=Nc1ccc(S(=O)(=O)NC(N)=O)cc1 2.37%, CCOc1ccc(C(CC(=O)O)NC(=O)Cc2ccc(Cl)cc2)cc1 (configuration not stated) -4.51%
